Measurements reported in PubChem BioAssay AID493246 (Drosophila RNAi Screening Center, 2011)

- Screen: 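Genes fly cells need to grow and stay alive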 (primary screen)
- System: Drosophila Kc and S2R+ cells
- Knock-down reagent: long dsRNA against Drosophila genes
- Measured: 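Cell number per well after knock-down, printed as raw plate values; calls were based on per-plate z-scores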
- Scale: Kc cell number and S2R+ cell number: higher = more cells remaining
- Hit rule: 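Active when the per-plate z-score of cell number is 3 or more in the direction of fewer cells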
The deposit covers about 21,000 reagents; below is a random part of those that have a named target and a result. Over the whole deposit, 429 (2%) were called active. 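Values are raw and not normalised between plates; calls rest on per-plate z-scores that were not deposited.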 A number with no mark means an inactive call. The numbers tell different reagents against one gene apart. Names joined by + are all predicted targets of the reagent. The record does not give: the amount of reagent, the time to read-out.

Gene | dsRNA no. | Kc cell number, rep 1 | Kc cell number, rep 2 | S2R+ cell number, rep 1 | S2R+ cell number, rep 2
Lcp65Ag3 + Lcp65Ag2 + Lcp65Ag1 | 1 | 1.54e6 | 1.46e6 | 1.25e6 | 1.24e6
Lcp65Ag3 + Lcp65Ag2 + Lcp65Ag1 | 2 | 1.45e6 | 1.24e6 | 1.21e6 | 1.22e6
Plzf | 1 | 1.37e6 | 1.41e6 | 1.15e6 | 1.23e6
CG31913 | 1 | 1.40e6 | 1.52e6 | 9.89e5 | 1.16e6
side-II | 1 | 1.47e6 | 1.56e6 | 9.85e5 | 1.17e6
side-II | 2 | 1.49e6 | 1.58e6 | 9.81e5 | 1.19e6
side-II | 3 | 1.54e6 | 1.67e6 | 1.19e6 | 1.33e6
side-II | 4 | 1.41e6 | 1.57e6 | 1.03e6 | 1.17e6
side-II | 5 | 1.62e6 | 1.72e6 | 1.31e6 | 1.48e6
CG33758 | 1 | 1.43e6 | 1.45e6 | 9.41e5 | 1.05e6
CG5282 | 1 | 1.44e6 | 1.50e6 | 1.26e6 | 1.29e6
Ada1-1 + Ada1-2 | 1 | 1.76e6 | 1.77e6 | 1.10e6 | 1.28e6
Ada1-1 + Ada1-2 | 2 | 1.42e6 | 1.49e6 | 9.79e5 | 1.15e6
ND-30 | 1 | 1.31e6 | 1.45e6 | 9.47e5 | 8.40e5
CR33317 | 1 | 1.56e6 | 1.68e6 | 1.37e6 | 4.01e5
CG3815 | 1 | 6.08e5 | – | 7.88e5 | –
CG14312 | 1 | 1.33e6 | 1.31e6 | 1.03e6 | 1.10e6
CG2993 | 1 | 1.22e6 | 1.35e6 | 1.30e6 | 1.35e6
CG2993 | 2 | 1.59e6 | 1.67e6 | 1.25e6 | 1.31e6
ND-51L2 | 1 | 1.54e6 | 1.55e6 | 1.30e6 | 1.40e6
Cyp12e1 | 1 | 1.54e6 | 1.55e6 | 1.39e6 | 1.44e6
Dgkepsilon | 1 | 1.36e6 | 1.49e6 | 1.17e6 | 1.30e6
CG11178 | 1 | 6.11e5 | – | 8.45e5 | –
Prp16 | 1 | 5.74e5 | – | 8.68e5 | –
Prp16 | 2 | 1.55e6 | 1.51e6 | 1.04e6 | 1.08e6
Gr59c | 1 | 1.64e6 | 1.67e6 | 1.33e6 | 1.60e6
CG4497 | 1 | 1.20e6 | 1.25e6 | 6.40e5 | 6.91e5
RunxA | 1 | 1.18e6 | 1.37e6 | 1.10e6 | 1.11e6
RunxA | 2 | 1.35e6 | 1.32e6 | 7.56e5 | 8.31e5
RunxA | 3 | 1.34e6 | 1.33e6 | 9.84e5 | 1.10e6
CG14306 (retired record) | 1 | 1.23e6 | 1.22e6 | 1.09e6 | 1.17e6
HmgZ | 1 | 5.97e5 | – | 8.94e5 | –
HmgZ | 2 | 1.79e6 | 1.80e6 | 1.19e6 | 2.55e5
M7BP | 1 | 9.77e5 | 1.31e6 | 8.59e5 | 9.22e5
CG33689 | 1 | 1.33e6 | 1.52e6 | 1.13e6 | 1.30e6
maca | 1 | 1.48e6 | 1.49e6 | 8.63e5 | 1.00e6
Arf1 | 1 | 1.70e6 | 1.75e6 | 1.29e6 | 1.28e6
CG5681 | 1 | 1.62e6 | 1.63e6 | 1.32e6 | 1.45e6
RpL37-2 | 1 | 1.70e6 | 1.67e6 | 1.33e6 | 1.44e6
cno | 1 | 1.43e6 | 1.50e6 | 1.18e6 | 1.30e6
cno | 2 | 1.08e6 (active) | 1.13e6 | 4.90e5 | 6.04e5
betaggt-I | 1 | 1.70e6 | 1.64e6 | 1.17e6 | 1.29e6
Or47b | 1 | 1.50e6 | 1.49e6 | 1.20e6 | 1.33e6
CG7457 | 1 | 1.54e6 | 1.49e6 | 1.23e6 | 1.29e6
Atg4a | 1 | 1.34e6 | 1.43e6 | 1.07e6 | 1.14e6
Orct | 1 | 1.57e6 | 1.60e6 | 1.22e6 | 1.26e6
PK2-R1 | 1 | 1.37e6 | 1.42e6 | 1.05e6 | 1.15e6
FipoQ | 1 | 4.76e5 | – | 7.93e5 | –
CG15547 | 1 | 1.65e6 | 1.71e6 | 1.06e6 | 1.18e6
TORIP | 1 | 1.45e6 | 1.52e6 | 1.17e6 | 1.21e6
fd96Cb | 1 | 1.42e6 | 1.41e6 | 9.30e5 | 9.81e5
CG34046 (retired record) | 1 | 1.34e6 | 1.44e6 | 1.04e6 | 1.07e6
CG4914 | 1 | 1.35e6 | 1.44e6 | 1.30e6 | 1.38e6
CG5274 | 1 | 1.45e6 | 1.48e6 | 1.28e6 | 1.32e6
CG16790 | 1 | 1.49e6 | 1.51e6 | 1.24e6 | 1.34e6
CG14075 | 1 | 1.64e6 | 1.72e6 | 1.29e6 | 1.47e6
CSN4 | 1 | 1.42e6 | 1.51e6 | 9.47e5 | 1.13e6
Adk3 | 1 | 1.54e6 | 1.58e6 | 1.21e6 | 1.32e6
CG15909 | 1 | 1.65e6 | 1.73e6 | 1.31e6 | 1.36e6
CG10274 | 1 | 1.33e6 | 1.38e6 | 1.15e6 | 1.06e6
CG9743 | 1 | 1.36e6 | 1.41e6 | 1.01e6 | 1.15e6
CAH1 + Adat1 | 1 | 1.24e6 | 1.38e6 | 1.10e6 | 1.07e6
CG13155 | 1 | 1.53e6 | 1.56e6 | 1.19e6 | 1.32e6
Jhbp2 | 1 | 1.85e6 | 2.02e6 | 1.28e6 | 1.32e6
CG42249 | 1 | 1.64e6 | 1.75e6 | 1.04e6 | 1.16e6
CG42249 | 2 | 1.87e6 | 1.72e6 | 1.14e6 | 1.27e6
CG8547 | 1 | 1.38e6 | 1.46e6 | 1.13e6 | 1.23e6
CG17129 | 1 | 1.30e6 | 1.40e6 | 9.95e5 | 1.01e6
CG18210 (retired record) | 1 | 1.63e6 | 1.87e6 | 1.10e6 | 1.31e6
CG18210 (retired record) | 2 | 5.62e5 | – | 8.72e5 | –
Ih | 1 | 1.38e6 | 1.45e6 | 1.19e6 | 1.20e6
yellow-b | 1 | 1.36e6 | 1.43e6 | 1.37e6 | 1.43e6
RfC4 | 1 | 1.45e6 | 1.50e6 | 1.22e6 | 1.18e6
CG8944 | 1 | 1.34e6 | 1.38e6 | 9.76e5 | 1.14e6
FANCI | 1 | 1.49e6 | 1.56e6 | 1.26e6 | 1.29e6

Entries listed so far whose target name begins with A or a (5):
Gene | dsRNA no. | Kc cell number, rep 1 | Kc cell number, rep 2 | S2R+ cell number, rep 1 | S2R+ cell number, rep 2
Ada1-1 + Ada1-2 | 1 | 1.76e6 | 1.77e6 | 1.10e6 | 1.28e6
Ada1-1 + Ada1-2 | 2 | 1.42e6 | 1.49e6 | 9.79e5 | 1.15e6
Arf1 | 1 | 1.70e6 | 1.75e6 | 1.29e6 | 1.28e6
Atg4a | 1 | 1.34e6 | 1.43e6 | 1.07e6 | 1.14e6
Adk3 | 1 | 1.54e6 | 1.58e6 | 1.21e6 | 1.32e6
